Measured values taken from paper PMC9753422.
Results are given in words; binding and its absence hold for the method and conditions named. Binding seen in cells or lysates may run through a third protein. Some binding calls cover weakened binding; strength is not graded here.

Chains of the proteins cited; added tags and fusions are not shown.
UniProt P35637: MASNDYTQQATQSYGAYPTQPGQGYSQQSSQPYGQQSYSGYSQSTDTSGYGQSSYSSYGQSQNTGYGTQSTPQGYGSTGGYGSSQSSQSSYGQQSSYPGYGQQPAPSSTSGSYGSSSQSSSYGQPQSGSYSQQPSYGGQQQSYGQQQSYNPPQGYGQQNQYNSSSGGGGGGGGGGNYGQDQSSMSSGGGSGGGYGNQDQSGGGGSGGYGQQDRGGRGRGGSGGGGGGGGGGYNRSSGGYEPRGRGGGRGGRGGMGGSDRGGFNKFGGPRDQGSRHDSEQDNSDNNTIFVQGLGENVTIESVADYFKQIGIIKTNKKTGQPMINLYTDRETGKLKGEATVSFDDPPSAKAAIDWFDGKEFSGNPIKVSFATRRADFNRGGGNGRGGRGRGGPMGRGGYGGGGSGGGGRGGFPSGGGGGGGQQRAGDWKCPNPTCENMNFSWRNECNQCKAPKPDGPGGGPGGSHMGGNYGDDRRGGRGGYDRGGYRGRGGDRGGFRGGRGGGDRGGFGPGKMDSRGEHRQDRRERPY

T1: acetyl-CoA acetyltransferase 1 (human (endogenous in LNCaP and PC3)) (UniProt P24752)
T1 sequence: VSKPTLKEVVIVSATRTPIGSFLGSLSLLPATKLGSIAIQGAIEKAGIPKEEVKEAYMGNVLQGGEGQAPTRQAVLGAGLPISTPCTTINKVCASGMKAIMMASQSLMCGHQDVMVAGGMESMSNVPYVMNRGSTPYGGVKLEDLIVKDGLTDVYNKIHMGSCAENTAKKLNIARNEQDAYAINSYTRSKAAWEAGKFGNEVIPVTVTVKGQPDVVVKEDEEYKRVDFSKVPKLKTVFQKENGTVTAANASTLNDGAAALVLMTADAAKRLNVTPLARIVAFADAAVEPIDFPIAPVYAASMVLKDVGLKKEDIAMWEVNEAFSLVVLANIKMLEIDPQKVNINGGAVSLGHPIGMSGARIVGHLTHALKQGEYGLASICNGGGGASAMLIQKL


How the values were obtained:
[1] = target: T1, acetyl-CoA acetyltransferase 1 (human (endogenous in LNCaP and PC3)); assay: co-IP; endogenous proteins in LNCaP or PC3 cell lysate; anti-ACAT1 or anti-FUS antibody (8 ug) overnight at 4 °C, anti-mouse/rabbit IgG as control, protein A/G beads, immunoblotting
[2] = target: fused in sarcoma (FUS) RNA-binding protein (human (endogenous in LNCaP and PC3)) (UniProt P35637); assay: as above

Molecule | binding [1] | binding [2]
fused in sarcoma (FUS) RNA-binding protein (from UniProt P35637 1-526) | binds | –
acetyl-CoA acetyltransferase 1 (enzyme, UniProt P24752 34-427) VSKPTLKEVVIVSATRTPIGSFLGSLSLLPATKLGSIAIQGAIEKAGIPKEEVKEAYMGNVLQGGEGQAPTRQAVLGAGLPISTPCTTINKVCASGMKAIMMASQSLMCGHQDVMVAGGMESMSNVPYVMNRGSTPYGGVKLEDLIVKDGLTDVYNKIHMGSCAENTAKKLNIARNEQDAYAINSYTRSKAAWEAGKFGNEVIPVTVTVKGQPDVVVKEDEEYKRVDFSKVPKLKTVFQKENGTVTAANASTLNDGAAALVLMTADAAKRLNVTPLARIVAFADAAVEPIDFPIAPVYAASMVLKDVGLKKEDIAMWEVNEAFSLVVLANIKMLEIDPQKVNINGGAVSLGHPIGMSGARIVGHLTHALKQGEYGLASICNGGGGASAMLIQKL | – | binds
